Measurements as given in publication PMC12609382.
Results are given in words; binding and its absence hold for the method and conditions named. In cells and extracts the contact can be indirect. Some entries that bind do so weakly or less than the wild type. Tags and fused reporters may be left off the sequences shown.

Protein sequences, listed by entry. Tags and fused reporters are not part of them. Residues count along the entry.
GST-PRDM16-224-454 (zinc finger domain 1 of PRDM16) (A2A935, residues 224-454): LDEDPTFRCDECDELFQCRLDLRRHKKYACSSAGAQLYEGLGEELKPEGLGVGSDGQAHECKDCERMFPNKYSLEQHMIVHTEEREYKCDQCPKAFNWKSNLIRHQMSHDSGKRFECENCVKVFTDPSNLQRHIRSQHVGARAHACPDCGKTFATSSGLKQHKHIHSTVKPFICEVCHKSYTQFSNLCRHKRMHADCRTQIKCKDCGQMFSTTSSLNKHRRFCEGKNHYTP
GST-PRDM16-881-1038 (zinc finger domain 2 of PRDM16) (A2A935, residues 881-1038): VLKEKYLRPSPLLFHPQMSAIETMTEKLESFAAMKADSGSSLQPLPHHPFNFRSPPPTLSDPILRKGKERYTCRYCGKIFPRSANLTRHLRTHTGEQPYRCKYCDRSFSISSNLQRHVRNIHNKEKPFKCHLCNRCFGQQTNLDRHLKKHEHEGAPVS

What was measured:
[1] = molecular target: GST-PRDM16-881-1038 (zinc finger domain 2 of PRDM16) (UniProt A2A935); assay: pull-down; GST-PRDM16 fragments on glutathione beads as bait; pre-cleared lysates of HEK293 cells expressing nuclear SREBPs (wild type or deletion mutants) as prey; 1 h at 4 °C; washes in buffer A and once in 0.5 M NaCl; Western blot; only the target purified
[2] = molecular target: GST-PRDM16-224-454 (zinc finger domain 1 of PRDM16) (UniProt A2A935); assay: as above

Binder | binding [1] | binding [2]
FLAG-SREBP1a-ΔC (nuclear SREBP1a without the C-terminal regulatory domain) (domain or fragment, UniProt P36956-1 2-417) DEPPFSEAALEQALGEPCDLDAALLTDIEDMLQLINNQDSDFPGLFDPPYAGSGAGGTDPASPDTSSPGSLSPPPATLSSSLEAFLSGPQAAPSPLSPPQPAPTPLKMYPSMPAFSPGPGIKEESVPLSILQTPTPQPLPGALLPQSFPAPAPPQFSSTPVLGYPSPPGGFSTGSPPGNTQQPLPGLPLASPPGVPPVSLHTQVQSVVPQQLLTVTAAPTAAPVTTTVTSQIQQVPVLLQPHFIKADSLLLTAMKTDGATVKAAGLSPLVSGTTVQTGPLPTLVSGGTILATVPLVVDAEKLPINRLAAGSKAPASAQSRGEKRTAHNAIEKRYRSSINDKIIELKDLVVGTEAKLNKSAVLRKAIDYIRFLQHSNQKLKQENLSLRTAVHKSKSLKDLVSACGSGGNTDVLMEGV | binds | binds
FLAG-SREBP1a-ΔTAD (nuclear SREBP1a without the N-terminal transactivation domain) (domain or fragment, UniProt P36956-1 90-490) PQAAPSPLSPPQPAPTPLKMYPSMPAFSPGPGIKEESVPLSILQTPTPQPLPGALLPQSFPAPAPPQFSSTPVLGYPSPPGGFSTGSPPGNTQQPLPGLPLASPPGVPPVSLHTQVQSVVPQQLLTVTAAPTAAPVTTTVTSQIQQVPVLLQPHFIKADSLLLTAMKTDGATVKAAGLSPLVSGTTVQTGPLPTLVSGGTILATVPLVVDAEKLPINRLAAGSKAPASAQSRGEKRTAHNAIEKRYRSSINDKIIELKDLVVGTEAKLNKSAVLRKAIDYIRFLQHSNQKLKQENLSLRTAVHKSKSLKDLVSACGSGGNTDVLMEGVKTEVEDTLTPPPSDAGSPFQSSPLSLGSRGSGSGGSGSDSEPDSPVFEDSKAKPEQRPSLHSRGMLDRSRLAL | binds | binds
